{"sequences": {"note": "The chains behind the UniProt entries cited, without tags or fusion partners. Where a name states a change or a piece, a line headed by the entry shows the natural chain unless it says otherwise.", "UniProt P18054": "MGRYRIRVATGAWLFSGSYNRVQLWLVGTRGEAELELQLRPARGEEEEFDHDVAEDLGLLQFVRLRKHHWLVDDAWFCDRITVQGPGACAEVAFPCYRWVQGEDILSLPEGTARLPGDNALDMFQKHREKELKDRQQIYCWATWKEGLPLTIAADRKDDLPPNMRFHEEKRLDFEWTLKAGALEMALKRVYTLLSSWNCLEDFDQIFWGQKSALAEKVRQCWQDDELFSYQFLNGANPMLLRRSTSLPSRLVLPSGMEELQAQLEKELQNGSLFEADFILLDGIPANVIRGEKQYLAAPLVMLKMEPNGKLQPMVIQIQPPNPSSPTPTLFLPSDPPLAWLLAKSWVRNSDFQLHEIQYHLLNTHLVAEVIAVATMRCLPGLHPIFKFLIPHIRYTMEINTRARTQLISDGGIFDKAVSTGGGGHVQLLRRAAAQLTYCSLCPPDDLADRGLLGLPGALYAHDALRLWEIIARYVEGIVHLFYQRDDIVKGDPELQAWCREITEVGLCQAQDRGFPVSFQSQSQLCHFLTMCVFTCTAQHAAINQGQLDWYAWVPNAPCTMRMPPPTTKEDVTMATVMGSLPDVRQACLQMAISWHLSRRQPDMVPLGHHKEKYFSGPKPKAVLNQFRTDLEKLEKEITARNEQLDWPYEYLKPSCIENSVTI"}, "source": "PubChem BioAssay AID1671190", "about": "(National Center for Advancing Translational Sciences (NCATS), 2021)", "note": "The campaign covered roughly 580,000 compounds. About 6,100 (1.1%) were called active. This list was built around the results that the source calls inconclusive (neither active nor inactive); the mix of calls is not that of the screen. Calls come from the whole dose curve; as a rule, active = well fitted inhibition curve with a large enough effect; inconclusive = small, poorly fitted or top-dose-only effect, or another doubt; inactive = no such curve, though single readings can be large or run the other way. Where the call is inconclusive, the potency comes from a doubtful curve fit. % is set by controls: 0 for no effect and ±100 for the full control effect; potency is the fitted concentration of half-maximal effect."}
{"biological_target": "Polyunsaturated fatty acid lipoxygenase ALOX12 (Homo sapiens) (UniProt P18054)", "test": "Primary qHTS assay for inhibitors of human arachidonate 12S-lipoxygenase (ALOX12): Round 2", "settings": "purified 12hLO, xylenol orange hydroperoxide absorbance; activity change, negative = inhibition: at 108 µM (top of the series) unless noted", "outline": "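Purified human 12hLO (150 nM final) in 25 mM Hepes, 0.01% Triton X-100, pH 7.0 was preincubated 15 min at room temperature with compound. Then 40 uM arachidonic acid was added, 30 min. Hydroperoxide was read by Fe-XO absorbance ratio 573/405 nm.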"}
{"smiles": "Cc1ccc(CN2C[C@@H](CO)[C@H](c3ccccn3)C2)nc1", "activity change, negative = inhibition": "inactive: 104%"}
{"smiles": "Cc1cc(F)ccc1NC(=O)C1CCN(c2nc3ccccc3o2)CC1", "Potency": "inconclusive: 100 µM [inhibitor, partial curve, poor fit]"}
{"smiles": "O=C(NC1CCCCC1)c1ccc2c(c1)N(Cc1cccc(F)c1)C(=O)c1ccccc1S2", "Potency": "inconclusive: 22.4 µM [inhibitor, partial curve, poor fit]"}
{"smiles": "CCOC(=O)C1=C(C)NC(C)=C(C(=O)OCC)C1C(=O)OCC(=O)NC1(C#N)CCCCC1", "Potency": "inconclusive: 56.2 µM [inhibitor, partial curve, poor fit]"}
{"smiles": "CCN(CC)C(=O)C1=C(C)NC(=S)NC1c1cccs1", "note": "(stereo not drawn)", "Potency": "inconclusive: 79.4 µM [inhibitor, single point]"}
{"smiles": "COc1cc(C2Nn3c(nnc3-c3ccccc3OC)S2)ccc1O", "note": "(stereo not drawn)", "Potency": "inconclusive: 2.24 µM [inhibitor, full curve, poor fit]"}
{"smiles": "CC(=O)N(C)c1ccc(NCc2cc(=O)oc3cc(C)c(O)cc23)cc1", "Potency": "inconclusive: 35.5 µM [inhibitor, single point]"}
{"smiles": "Cc1cc(-n2c(SCC(=O)NC(C)(C)C)nc3ccsc3c2=O)ccc1F", "Potency": "inconclusive: 126 µM [inhibitor, single point]"}
{"smiles": "Cc1ccsc1/C=N/NC(=O)c1ccncc1", "activity change, negative = inhibition": "inactive: 12.1%"}
{"smiles": "N#Cc1ccccc1COC(=O)c1ccc2c(c1)OCO2", "Potency": "inconclusive: 17.8 µM [inhibitor, partial curve, poor fit]"}
{"smiles": "CCN(c1ccc(NC(=O)COC(=O)c2ccc(C)s2)cc1)C(C)C", "Potency": "inconclusive: 56.2 µM [inhibitor, partial curve, poor fit]"}
{"smiles": "COc1ccc(CC(N)c2csc(NC(=O)c3ccc(F)cc3)n2)cc1", "note": "(stereo not drawn)", "Potency": "inconclusive: 50.1 µM [inhibitor, partial curve, poor fit]"}
{"smiles": "CCc1ccc(C=C2SC(=S)N(CCCC(=O)Nc3ccc(C(=O)O)cc3)C2=O)cc1", "Potency": "inconclusive: 35.5 µM [inhibitor, partial curve, poor fit]"}
{"smiles": "CCN1C[C@@H]2[C@@H]3C(=O)N(Cc4ccccc4)C(=O)[C@@H]3[C@](Cc3ccccc3)(C(=O)OC)N2C1=NCc1ccccc1", "Potency": "inconclusive: 0.251 µM [inhibitor, single point]"}
{"smiles": "COCCn1nnnc1C(C(C)C)N(Cc1ccccc1)Cc1cc2cc(OC)ccc2[nH]c1=O", "note": "(stereo not drawn)", "Potency": "inconclusive: 35.5 µM [inhibitor, single point]"}
{"smiles": "Cc1ccc(C)c(NC(=O)c2ccc3c(c2)CCC3)c1", "activity change, negative = inhibition": "inactive: -0.234%"}
{"smiles": "CCc1c(C)sc(NC(=O)CCCCl)c1C#N", "Potency": "inconclusive: 7.94 µM [inhibitor, full curve]"}
{"smiles": "Cc1ccc2nc(C)cc(C(=O)OC(C)C(=O)NC3CCCC3)c2c1", "note": "(stereo not drawn)", "activity change, negative = inhibition": "inactive: -10.1%"}
{"smiles": "CCCCCCCCOC(=O)/C(C#N)=C/c1ccc(-c2ccccc2)o1", "Potency": "inconclusive: 89.1 µM [inhibitor, single point]"}
{"smiles": "Cc1c(C(=O)N2CC[C@@H]3[C@@H](CCC(=O)N3CCN)C2)[nH]c2ccccc12", "activity change, negative = inhibition": "inactive: -3.05%"}
{"smiles": "CC1Cc2ccccc2C(=O)N1", "note": "(stereo not drawn)", "activity change, negative = inhibition": "inactive: 7.28%"}
{"smiles": "CCNS(=O)(=O)c1ccc(C(=O)OCc2cc(=O)oc3cc(OC)ccc23)cc1", "activity change, negative = inhibition": "inactive: -11.5%"}
{"smiles": "Cc1cc2ncc(C(=O)NCCc3ccccc3)cn2n1", "activity change, negative = inhibition": "inactive: -1.17% [at 176 µM]"}
{"smiles": "CCC(Sc1ncccc1C(=O)O)C(=O)N1CCCC1", "note": "(stereo not drawn)", "Potency": "inconclusive: 0.282 µM [inhibitor, full curve, poor fit]"}
{"smiles": "COC(=O)CSc1nc2c(c(=O)n(C)c(=O)n2C)n1Cc1ccccc1Cl", "Potency": "inconclusive: 44.7 µM [inhibitor, partial curve, poor fit]"}
{"smiles": "Cc1ccc(SCCNC(=S)Nc2ccccc2)cc1", "Potency": "inconclusive: 35.5 µM [inhibitor, partial curve, poor fit]"}
{"smiles": "COC(=O)c1ccc(CNC(=O)c2ccccc2C(F)(F)F)cc1", "Potency": "inconclusive: 35.5 µM [inhibitor, single point]"}
{"smiles": "OC(COc1cccc2ccccc12)CN1CCN(c2ccccn2)CC1", "note": "(stereo not drawn)", "activity change, negative = inhibition": "inconclusive: -33.8% [inhibitor]"}
{"smiles": "Cc1oc(-c2ccccc2)nc1CS(=O)CC(=O)N1CCc2ccccc21", "note": "(stereo not drawn)", "Potency": "inconclusive: 79.4 µM [inhibitor, partial curve, poor fit]"}
{"smiles": "COc1ccc(N2CCN(CCNC(=O)Nc3ccc(C)c(Cl)c3)CC2)cc1", "activity change, negative = inhibition": "inactive: 14.2%"}
{"smiles": "COc1ccc(C2C(C(=O)c3ccccc3)N3c4ccccc4C=CC3C2[N+](=O)[O-])cc1", "note": "(stereo not drawn)", "Potency": "inconclusive: 56.2 µM [inhibitor, partial curve, poor fit]"}
{"smiles": "CCOc1ccc(-c2[nH]nc3c2C(c2ccc(O)cc2)C(C#N)=C(N)O3)cc1", "note": "(stereo not drawn)", "activity change, negative = inhibition": "inactive: -17.4% [at 57.4 µM]"}
{"smiles": "CC1(C(=O)NCc2cccc(C(F)(F)F)c2)CCN1Cc1ccc(-c2ccccc2)o1", "note": "(stereo not drawn)", "Potency": "inconclusive: 44.7 µM [inhibitor, partial curve, poor fit]"}
{"smiles": "CCOc1ccc2[nH]cc(C(=O)NCCc3ccccc3)c(=O)c2c1", "activity change, negative = inhibition": "inactive: 21.6%"}
{"smiles": "C=CCN=C1NC(c2ccccc2)C(C(=O)OC)=C(C)N1Cc1ccccc1C(F)(F)F", "note": "(stereo not drawn)", "Potency": "inconclusive: 79.4 µM [inhibitor, partial curve, poor fit]"}
{"smiles": "CCOCCNc1ncnc2c1CN(C1CCCNC1)C(=O)CN2C", "note": "(stereo not drawn)", "Potency": "inconclusive: 2.54 µM [inhibitor, partial curve, poor fit]"}
{"smiles": "CCCCN(C(=O)c1ccccc1Cl)C(CC(C)C)c1nc2ccccc2[nH]1", "note": "(stereo not drawn)", "Potency": "inconclusive: 39.8 µM [inhibitor, partial curve, poor fit]"}
{"smiles": "C=CC[C@@H]1Cc2c(Br)ccc(Br)c2[C@@H](CC=C)N1", "Potency": "inconclusive: 35.5 µM [inhibitor, partial curve, poor fit]"}
{"smiles": "CN(C)/C=C/C(=O)c1ccccn1", "Potency": "inconclusive: 0.282 µM [inhibitor, full curve, poor fit]"}
{"smiles": "COc1cc(NC(=O)CN2CCCCC2)c(C)cc1[N+](=O)[O-]", "activity change, negative = inhibition": "inactive: 7.38%"}
{"smiles": "O=C1Nc2ccccc2CCC1n1nc(-c2ccccc2Cl)ccc1=O", "note": "(stereo not drawn)", "activity change, negative = inhibition": "inactive: 7.86%"}
{"smiles": "Cc1ccc(NC(=O)CSc2nc3ccc(Br)cc3[nH]2)c(C)c1", "activity change, negative = inhibition": "inactive: -81.1%"}
{"smiles": "CN1Cc2ccc(Nc3ccccc3)nc2C(C)(C(=O)NCc2cccs2)C1", "note": "(stereo not drawn)", "activity change, negative = inhibition": "inactive: 0.706% [at 176 µM]"}
